For some of these results: Where cells or extracts were used, other partners may take part. For some of these results: A weaker result is weaker than the reference pair of the same experiment. For some of these results: Tags and fusion partners may be left off the protein sequences shown. For some of these results: For at least one entry, the source does not settle the construct or the ends of the probe.
Columns and labels:
dCREB2-b [1] = experiment: competition with a labelled probe; conditions: higher affinity for CRE than nonspecific DNA; competitors not reported individually; purified recombinant protein
dCREB1 [2] = test system: T1, dCREB1; experiment: EMSA; conditions: protein in an extract
T1 sequence (limits assumed): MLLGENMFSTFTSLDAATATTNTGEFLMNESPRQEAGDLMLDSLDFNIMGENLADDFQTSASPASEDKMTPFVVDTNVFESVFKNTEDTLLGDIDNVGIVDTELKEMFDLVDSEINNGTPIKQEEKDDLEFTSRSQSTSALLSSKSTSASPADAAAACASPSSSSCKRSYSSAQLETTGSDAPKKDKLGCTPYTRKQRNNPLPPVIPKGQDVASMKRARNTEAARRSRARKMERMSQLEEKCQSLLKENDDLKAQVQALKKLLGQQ

dCREB2-b [3] = experiment: EMSA; conditions: purified recombinant protein
dCREB1 [4] = test system: T1, dCREB1; experiment: binding assay; conditions: expression-library filter screen with labelled 3xCRE probe; protein in a lysate after overexpression; protein details: lambda gt11 expression clone on filter lifts; label: 32P fill-in
dCREB2-b [5] = experiment: binding assay; conditions: expression-library filter screen with labelled 3xCRE probe; protein in a lysate after overexpression; label: 32P fill-in

“CTCTAGAGCGTACGCAAGCGTACGCAAGCGTACG (double strand) [Nonspecific competitor #4]”: binds more weakly (dCREB2-b [1]).

“AAATGAATTAACGGAAATGAATTAACGGAAATGAATTAACGG (double strand) [3xmCRE mutant]”: binds more weakly (dCREB1 [2]; lower affinity than 3xCRE, variant of 3xCRE wild-type); binds more weakly (dCREB2-b [3]; lower but detectable affinity than wild-type 3xCRE, variant of 3xCRE wild-type).

“CGTCTAGATCTATGACTGAATATGACGTAATATGACGTAATGGTACCAGATCTGGCC (double strand) [3xCRE screening probe]”: binds (dCREB1 [4]); binds (dCREB2-b [5]).

“CTAGAGCTTGCAAGCATGCTTGCAAGCAAGCATGCTTGCAAGCATGCTTGCAAGC (double strand) [Nonspecific competitor #3]”: binds more weakly (dCREB2-b [1]).

“TGCACGGGTTTTCGACGTTCACTGGTAGTGTCTGATGAGGCCGAAAGGCCGAAACGCGATGCCCATAACCACCACGCTCAG (double strand) [Nonspecific competitor #1]”: binds more weakly (dCREB2-b [1]).

“AAATGACGTAACGGAAATGACGTAACGGAAATGACGTAACG (double strand) [3xCRE wild-type]”: binds (dCREB1 [2]; higher-affinity binding than to 3xmCRE, label: 32P 5' end); binds (dCREB2-b [3]; Tris-glycine gel with 3 mM MgCl2, label: 32P 5' end).

“TCGACCCACAGTTTCGGGTTTTCGAGCAAGTCTGCTAGTGTCTGATGAGGCCGAAAGGCCGAAACGCGAAGCCGTATTGCACCACGCTCATCGAGAAGGC (double strand) [Nonspecific competitor #2]”: binds more weakly (dCREB2-b [1]).

Reference: patent publication US7572434B2, “Method for assessing the effect of a drug on long term memory formation” (Cold Spring Harbor Laboratory, priority 1994, dated 2009)
